## Screening data, single-dose tests

Amino acid sequences for entries named in this document (tags omitted). Residues count along the entry.
UniProt Q4DA54, 1-478: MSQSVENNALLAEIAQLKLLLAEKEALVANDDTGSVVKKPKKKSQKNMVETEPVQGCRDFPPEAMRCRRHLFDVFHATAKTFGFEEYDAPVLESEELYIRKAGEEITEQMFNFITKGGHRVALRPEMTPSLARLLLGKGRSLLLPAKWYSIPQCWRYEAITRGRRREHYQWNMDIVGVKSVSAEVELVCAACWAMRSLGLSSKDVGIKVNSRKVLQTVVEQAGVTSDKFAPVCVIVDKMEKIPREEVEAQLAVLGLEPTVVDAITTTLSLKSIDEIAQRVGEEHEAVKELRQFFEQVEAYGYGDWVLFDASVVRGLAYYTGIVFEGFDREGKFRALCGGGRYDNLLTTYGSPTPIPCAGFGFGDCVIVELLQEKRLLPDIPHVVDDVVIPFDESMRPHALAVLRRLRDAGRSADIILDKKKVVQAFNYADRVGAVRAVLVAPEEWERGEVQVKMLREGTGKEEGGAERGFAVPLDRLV
UniProt I6X8D2, whole entry: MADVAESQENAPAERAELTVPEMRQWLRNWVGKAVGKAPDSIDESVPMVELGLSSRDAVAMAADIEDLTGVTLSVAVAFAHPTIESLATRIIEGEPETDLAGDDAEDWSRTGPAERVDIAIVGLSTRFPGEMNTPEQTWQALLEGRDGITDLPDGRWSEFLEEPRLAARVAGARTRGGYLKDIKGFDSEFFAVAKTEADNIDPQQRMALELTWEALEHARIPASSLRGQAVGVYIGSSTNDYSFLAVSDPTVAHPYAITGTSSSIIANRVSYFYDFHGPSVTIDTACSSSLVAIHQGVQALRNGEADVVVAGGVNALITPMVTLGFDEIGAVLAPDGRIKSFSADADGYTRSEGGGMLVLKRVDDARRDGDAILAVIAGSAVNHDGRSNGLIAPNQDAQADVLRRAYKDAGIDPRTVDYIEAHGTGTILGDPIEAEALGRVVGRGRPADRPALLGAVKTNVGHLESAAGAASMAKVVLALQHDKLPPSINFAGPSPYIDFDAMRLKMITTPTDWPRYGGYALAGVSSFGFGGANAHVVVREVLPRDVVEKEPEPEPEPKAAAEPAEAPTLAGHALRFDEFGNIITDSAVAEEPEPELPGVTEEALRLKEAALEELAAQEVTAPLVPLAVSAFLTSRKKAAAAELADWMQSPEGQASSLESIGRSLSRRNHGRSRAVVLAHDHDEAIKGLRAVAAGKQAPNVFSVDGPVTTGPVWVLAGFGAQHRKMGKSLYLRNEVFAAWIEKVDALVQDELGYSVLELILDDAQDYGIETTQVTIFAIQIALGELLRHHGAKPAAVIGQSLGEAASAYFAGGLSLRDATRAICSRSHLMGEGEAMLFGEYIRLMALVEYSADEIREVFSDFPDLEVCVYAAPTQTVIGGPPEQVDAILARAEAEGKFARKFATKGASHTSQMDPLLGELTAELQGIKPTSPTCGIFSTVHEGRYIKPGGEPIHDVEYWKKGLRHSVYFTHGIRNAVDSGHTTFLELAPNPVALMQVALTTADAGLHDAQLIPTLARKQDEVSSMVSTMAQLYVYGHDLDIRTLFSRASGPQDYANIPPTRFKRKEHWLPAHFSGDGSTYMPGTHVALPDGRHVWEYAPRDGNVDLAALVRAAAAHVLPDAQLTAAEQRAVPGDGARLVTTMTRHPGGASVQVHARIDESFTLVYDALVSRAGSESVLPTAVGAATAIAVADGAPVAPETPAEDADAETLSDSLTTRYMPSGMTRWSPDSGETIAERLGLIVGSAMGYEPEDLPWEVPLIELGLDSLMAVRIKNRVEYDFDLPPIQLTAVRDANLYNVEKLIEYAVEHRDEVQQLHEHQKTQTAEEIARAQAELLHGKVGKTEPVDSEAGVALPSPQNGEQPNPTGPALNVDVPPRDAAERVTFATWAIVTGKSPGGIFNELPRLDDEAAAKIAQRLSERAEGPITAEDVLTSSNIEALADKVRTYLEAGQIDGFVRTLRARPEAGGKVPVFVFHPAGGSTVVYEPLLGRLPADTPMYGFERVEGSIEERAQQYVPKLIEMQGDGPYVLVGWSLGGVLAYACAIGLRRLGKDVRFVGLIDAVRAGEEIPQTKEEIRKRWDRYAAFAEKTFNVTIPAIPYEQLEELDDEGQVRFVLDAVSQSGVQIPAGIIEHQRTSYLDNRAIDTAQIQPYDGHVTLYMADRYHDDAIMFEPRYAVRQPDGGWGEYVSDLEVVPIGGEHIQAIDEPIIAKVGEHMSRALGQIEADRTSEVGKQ
UniProt P9WNZ1, whole entry: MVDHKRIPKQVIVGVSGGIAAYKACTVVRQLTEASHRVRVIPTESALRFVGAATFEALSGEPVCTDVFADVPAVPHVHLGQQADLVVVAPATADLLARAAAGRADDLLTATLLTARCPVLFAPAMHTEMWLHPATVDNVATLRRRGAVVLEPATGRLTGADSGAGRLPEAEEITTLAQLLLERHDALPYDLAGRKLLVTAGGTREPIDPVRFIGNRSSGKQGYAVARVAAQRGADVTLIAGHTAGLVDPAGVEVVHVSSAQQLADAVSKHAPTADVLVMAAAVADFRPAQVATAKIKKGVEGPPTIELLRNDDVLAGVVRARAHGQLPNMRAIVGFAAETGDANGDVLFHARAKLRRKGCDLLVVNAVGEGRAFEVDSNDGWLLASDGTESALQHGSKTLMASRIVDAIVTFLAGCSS
UniProt Q8IDJ8, 1-583: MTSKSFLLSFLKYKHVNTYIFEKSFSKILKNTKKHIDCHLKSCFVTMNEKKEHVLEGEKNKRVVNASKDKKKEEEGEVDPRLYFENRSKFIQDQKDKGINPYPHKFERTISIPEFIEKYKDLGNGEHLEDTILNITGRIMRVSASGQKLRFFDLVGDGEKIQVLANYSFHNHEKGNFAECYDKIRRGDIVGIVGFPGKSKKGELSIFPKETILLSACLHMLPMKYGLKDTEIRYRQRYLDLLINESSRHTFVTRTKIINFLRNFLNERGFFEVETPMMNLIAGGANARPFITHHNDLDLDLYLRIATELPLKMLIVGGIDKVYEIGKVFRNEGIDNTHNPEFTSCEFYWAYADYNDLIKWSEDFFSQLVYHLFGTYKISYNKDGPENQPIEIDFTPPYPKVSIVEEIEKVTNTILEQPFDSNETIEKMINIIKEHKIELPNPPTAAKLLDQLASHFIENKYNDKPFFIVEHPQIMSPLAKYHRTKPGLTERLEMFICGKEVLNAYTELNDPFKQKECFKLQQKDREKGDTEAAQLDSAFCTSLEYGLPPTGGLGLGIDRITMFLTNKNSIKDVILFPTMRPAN
UniProt P9WFT3, whole entry: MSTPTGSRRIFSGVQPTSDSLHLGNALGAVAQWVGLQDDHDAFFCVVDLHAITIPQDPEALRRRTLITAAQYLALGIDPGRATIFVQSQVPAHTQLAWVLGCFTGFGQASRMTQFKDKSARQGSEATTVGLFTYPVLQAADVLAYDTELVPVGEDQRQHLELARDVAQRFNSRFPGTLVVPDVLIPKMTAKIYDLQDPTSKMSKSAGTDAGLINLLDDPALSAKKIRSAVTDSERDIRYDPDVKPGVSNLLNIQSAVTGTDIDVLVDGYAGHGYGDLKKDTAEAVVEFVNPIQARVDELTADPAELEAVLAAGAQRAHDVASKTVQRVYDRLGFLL

The values are deposited in ChEMBL (CHEMBL3988442, “University of Dundee, Small-Polar-MMV Screening Library” (2021)).

TcHisRS: 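Histidine-tRNA ligase, Trypanosoma cruzi CL Brener (UniProt Q4DA54). Enzyme assay of histidyl-tRNA synthetase; the read-out is not stated. Compounds at 30 µM. The record gives no direction; compounds that gave an IC50 in retests scored well above the rest, so higher reads as stronger inhibition. About 69,000 compounds were tested under these conditions; 0.045% (about 31) showed 50% or more at least once.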
Pks13 thioesterase: 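Enzyme assay of the thioesterase domain of polyketide synthase 13; the read-out is not stated. Target: Polyketide synthase Pks13, Mycobacterium tuberculosis (UniProt I6X8D2). Tested at 30 µM. Higher reads as stronger inhibition (inferred from which compounds were picked for retests). Size under these conditions: about 67,000 compounds, about 300 of them at 50% or above in at least one test.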
CoaBC: 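Coenzyme A biosynthesis protein CoaBC, Mycobacterium tuberculosis (UniProt P9WNZ1). Enzyme assay of CoaBC with a phosphate dye (Biomol Green) read at 650 nm. Compounds at 30 µM. Higher reads as stronger inhibition, judged from the few compounds that gave an IC50. Most strong results did not repeat in a second test. Size under these conditions: about 67,000 compounds, about 40 of them at 50% or above in at least one test.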
Leishmania in macrophages: 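Cell assay of Leishmania donovani living inside macrophages; the read-out is not stated. Tested at 30 µM. Higher reads as stronger inhibition (inferred: compounds with an IC50 in retests scored well above the rest). Of about 69,000 compounds tested this way, about 1,000 (1.5%) reached 50% or more in at least one test.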
PfKRS1: 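Enzyme assay of the cytosolic lysyl-tRNA synthetase in 384-well plates, read by luminescence. Target: Lysine-tRNA ligase, Plasmodium falciparum 3D7 (UniProt Q8IDJ8). Compounds at 30 µM. Direction is inferred from only a few compounds that gave an IC50; most scored high, so higher reads as stronger inhibition. Size under these conditions: about 69,000 compounds, about 49 of them at 50% or above in at least one test.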
MtTrpRS: 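Enzyme assay of tryptophanyl-tRNA synthetase; the read-out is not stated. Target: Tryptophan-tRNA ligase, Mycobacterium tuberculosis (UniProt P9WFT3). Compounds at 10 µM. Direction is not recorded; retested compounds ran higher, which suggests that high means inhibition. Size under these conditions: about 65,000 compounds, about 64 of them at 50% or above in at least one test.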

Each number is a percent effect as filed.
How 0% and 100% were set is not recorded. Most values in the screen are low, and negative values occur.
The compounds are a random part of those screened.
Two or more numbers in one place are separate tests of the same structure; such repeats can differ widely.
A dash means the value is not listed here; it may have been measured.

| Compound | TcHisRS | Pks13 thioesterase | CoaBC | Leishmania in macrophages | PfKRS1 | MtTrpRS |
|---|---|---|---|---|---|---|
| `O=C(O)C(F)(F)F.[H][C@@]12CCCO[C@]1([H])[C@H](OCC1CCOCC1)CN2c1ncc(F)cn1` | - | - | - | 63.79 | - | - |
| `Cc1nnc(SC2CCN(c3sccc3C#N)C2=O)s1` (stereo not shown) | 7 | 22.21 | 15.04 | 19.38 | -4.258 | 9.398 |
| `CCc1nnc2n1CCN(C(=O)c1ccc3c(c1)NC(=O)CO3)C2` | 7.303 | 3.618 | 3.421 | 1.521 | 2.134 | -3.818 |
| `Cn1cccc1C(=O)N1C[C@H]2CN(CCN3CCCC3)C(=O)[C@H]2C1` | -1.031 | -2.199 | 2.956 | - | 3.748 | -4.824 |
| `CSc1nccc(N2CCC(NCCN3CCOCC3)CC2)n1` | 9.036 | -0.5708 | 2.561 | 1.754 | 0.1394 | 4.768 |
| `CC(C)NC(=O)N1CCc2ncc(CN3CCOCC3)n2CC1` | 3.867 | -11 | 0.2571 | - | 1.781 | -2.005 |
| `Cc1nn(CC(O)CN2CCc3ccccc3C2)c(=O)c(C#N)c1C` (stereo not shown) | 11.6 | -8.985 | -2.679 | 17.77 | 4.571 | 0.9288 |
| `O=C(C1CCCO1)N1CCC(c2nc(-c3ccccc3)n[nH]2)CC1` (stereo not shown) | 7.389 | 6.211 | 2.532 | 11.37 | 0.9653 | 1.168 |
| `Cn1c(N)nnc1SCc1ccc(Cl)cc1Br` | 10.34 | - | 1.353 | 23.44 | 7.276 | -0.4968 |
| `Cn1cc(C(=O)NCc2ccc(N3CCCC3)nc2)ccc1=O` | 3.955 | -8.156 | 2.611 | 28.83 | 1.576 | -4.827 |
| `O=C([C@@H]1C[C@@H]2CCN(C3CCOCC3)C[C@@H]2O1)N1CCCC1` | 4.673 | -8.45 | 2.469 | - | 1.528 | -8.439 |
| `Fc1cccc(CNc2cncc(-n3cccn3)n2)c1` | 1.63 | -3.521 | 3.306 | -2.638 | 0.2376 | -0.09671 |
| `CC(c1ccccc1)N1Cc2nc(N(C)C)ncc2C1=O` (stereo not shown) | -4.386 | 5.926 | -3.789 | -56.2 | -7.836 | 1.29 |
| `CN(Cc1cc[nH]n1)C(=O)c1ccc2c(c1)nc(N1CC[C@H](O)C1)n2C` | 7.143 | 6.499 | 2.138 | 21.17 | 7.318 | -2.313 |
| `[H][C@@]12CS(=O)(=O)C[C@]1([H])N(Cc1nccn1CC)CCN2Cc1ccc(C)o1` | - | - | - | 25.96 | - | - |
| `[H][C@@]12CCN(Cc3ccoc3)C[C@@]1([H])O[C@H](C(=O)NC)C2` | - | - | - | 10.26 | - | - |
| `Cc1ccc(C(=O)N2CC(=O)N(Cc3ccco3)CC(O)C2)cc1` (stereo not shown) | 1.124 | -4.188 | 3.39 | -1.809 | 7.673 | - |
| `Cc1cnn(CCC(=O)N2CCN(C(=O)C(C)C)[C@@H]3CS(=O)(=O)C[C@@H]32)c1` | 7.2 | -3.128 | 11.04 | - | -0.2204 | -3.543 |
| `CC(CC(=O)Nc1ccc(C(=O)N(C)C)c(Cl)c1)n1cccc1` (stereo not shown) | 2.674 | -1.134 | 6.087 | 51.53 | -2.837 | 14.74 |
| `CS(=O)(=O)CCSCc1cccc2cccnc12` | 5.732 | -4.584 | - | 1.521 | 3.373 | -0.3027 |
| `CS(=O)(=O)CCCC(=O)Nc1cc(Cl)c(Cl)cn1` | -2.222 | -3.503 | 7.983 | 37.12 | -4.077 | 1.372 |
| `O=C(NCCCN1CCOCC1)c1cc(-c2ccc3c(c2)CCO3)n[nH]1` | -0.5464 | - | 6.595 | 29.3 | 1.131 | -4.422 |
| `Cc1cnc(CN2CCC(N(C)Cc3nnc(C4CC4)n3C)C2)cn1` (stereo not shown) | -2.542 | -22.19 | -1.322 | 23.54 | 2.234 | 1.844 |
| `O=C(NCc1cccc2cccnc12)N1CCC(n2cncn2)CC1` | 4.135 | -2.533 | 5.222 | -18.73 | 1.863 | 2.632 |
| `CN(C)C(=O)[C@@H]1C[C@H]2OCC[C@H]2N(CCOc2ccc(Cl)cc2)C1` | 3.261 | -21.02 | 12.15 | - | 0.0246 | -1.954 |
| `Cc1cnc(N2CCOC3(COCCN(c4nccs4)C3)C2)nc1` (stereo not shown) | 12.37 | -10.33 | 5.911 | 16.95 | 3.24 | -5.805 |
| `COC(=O)CCCC(=O)N1CCC(CO)(CCc2ccccc2)CC1` | -2.062 | -17.39 | -0.4717 | 0.7203 | -3.288 | 0.4619 |
| `Cc1nc(CN2CCN(C(=O)NC(C)c3cccnc3)CC2)cs1` (stereo not shown) | 3.55 | -37.67 | 7.731 | 3.14 | -4.615 | 24.54 |
| `O=C(NCC(O)c1cccc(F)c1)C1CCN(C(=O)C2CCC2)CC1` (stereo not shown) | 6.173 | 8.065 | -1.595 | -7.908 | 12.13 | 2.549 |
| `O=C(O)C(F)(F)F.[H][C@@]12CCN(C(=O)c3ccoc3)C[C@]1(COc1ncccc1F)CCO2` | - | - | - | 21.22 | - | - |
| `Cc1ccc(C2CN(C(=O)NCc3nnc4ccccn34)CCO2)o1` (stereo not shown) | -3.614 | 5.116 | -0.495 | -4.959 | -0.2182 | -0.4841 |
| `O=C(O)C(F)(F)F.O=C(O)C(F)(F)F.[H][C@@]12OCCN(Cc3ccc(OC)cc3)[C@@]1([H])CC[C@H]2Oc1ccccn1` | - | - | - | 29.81 | - | - |
| `CC(C)(C)NC(=O)c1nn(C2CCS(=O)(=O)C2)c2c1CCCC2` (stereo not shown) | 0 | 1.591 | 4.684 | 37.9 | 6.822 | 2.441 |
| `COc1ccccc1CNC(=O)CS(=O)(=O)Cc1ccccc1` | 0.8772 | -13.11 | 0 & 38.23 | -21.14 | 1.432 | 0.1434 |
| `CC(=O)N1CCC(C(=O)Nc2nnc(C(F)(F)F)[nH]2)CC1` | 6.404 | -16.08 | 1.935 | 30.68 | 8.662 | 2.834 |
| `Nc1cc2c(nn1)CCN(C(=O)Cc1ccc3c(c1)CCO3)C2` | 6.897 | -3.431 | 0.5894 | -18.05 | 0.3526 | 4.461 |
| `O=C(Nc1nc2c(s1)CN(S(=O)(=O)C1CC1)CC2)c1ccccn1` | 3.614 | -6.385 | -0.7634 | -7.236 & 10.8 | -7.426 | -15.23 |
| `Cc1ccc(N2CCN(C(=O)C3CN(C)C(=O)N3)CC2=O)cc1` (stereo not shown) | 11.88 | 4.424 | -2.67 | -3.434 | -2.891 | -2.592 |
| `COc1ccc(CN2CC[C@H]3CO[C@H](CNC(=O)N(C)C)[C@H]3C2)cc1` | -1.493 | -14.24 | 10.02 | - | 1.684 | -0.2288 |
| `[H][C@@]12COCC[C@]1([H])C[C@H](N(CC(=O)NC)C(=O)c1ccccc1)C2` | - | - | - | 18.69 | - | - |
| `CCOc1ccc(CN[C@@H]2COC[C@H]2c2ccc(F)cc2)cc1` | 2.326 | -22.44 | 7.975 | - | -1.459 | 4.92 |
| `O=C(OCc1ccccc1)C1CCCN1Cc1nc(C2CC2)no1` (stereo not shown) | 2.941 | - | 6.699 | 12.11 | 1.049 | -5.146 |
| `CCC(C(=O)NCCc1coc(-c2ccc(C)cc2)n1)N(C)C` (stereo not shown) | 2.762 | -10.34 | -1.656 | 1.232 | -1.879 | -4.192 |
| `CCCC(=O)NC(C)(C)Cc1ccccc1OC` | 3.448 | -12.08 | 7.143 | 5.817 | 2.443 | -4.193 |
| `CCCS(=O)(=O)N1CCC2(CC1)CC(Nc1ncccn1)CO2` (stereo not shown) | 1.84 | 10.63 | 4.994 | 36.64 | 6.059 | 5.913 |
| `CCN1CCC(CC(=O)NC[C@H]2CCc3ccccc3O2)CC1` | 12.5 | 9.456 | 3.532 | 8.968 | 4.068 | 4.009 |
| `CN(C)CCN1CCOC2(CCN(c3nccs3)CC2)c2ccccc21` | 10.75 | -16.25 | -45.88 | -51.55 & 20.29 | 1.152 | 0.9161 |
| `Cl.NCC(=O)N1CCC(c2ccnc(Nc3cc(C(F)(F)F)ccn3)n2)C1` (stereo not shown) | - | - | - | 77.96 | - | - |
| `Cc1nccn1Cc1nnc(C2CCCN(c3ncccc3F)C2)n1C` (stereo not shown) | -3.636 | -62.48 | 1.788 | -53 | 6.321 | 0.2472 |
| `O=C(O)C(F)(F)F.O=C(O)C(F)(F)F.[H][C@]12CCN(C(=O)NCc3cccnc3)C[C@@]1([H])OCCN(CCOC)C2` | - | - | - | 0.9366 | - | - |
| `Cc1oncc1C(=O)N1CCC2(CC1)CC(N1CCOCC1)C2.O=C(O)C(F)(F)F` | - | - | - | 3.53 | - | - |
| `O=C(CN1CCc2ccccc2C1)NCc1cc2n(n1)CCCNC2` | 8.287 | -33.85 | -3.571 | 1.067 | 2.711 | -2.58 |

6 of the entries, repeated:

Compound	TcHisRS	Pks13 thioesterase	CoaBC	Leishmania in macrophages	PfKRS1	MtTrpRS
Cc1cnc(N2CCOC3(COCCN(c4nccs4)C3)C2)nc1 (stereo not shown)	12.37	-10.33	5.911	16.95	3.24	-5.805
CCC(C(=O)NCCc1coc(-c2ccc(C)cc2)n1)N(C)C (stereo not shown)	2.762	-10.34	-1.656	1.232	-1.879	-4.192
CCOc1ccc(CN[C@@H]2COC[C@H]2c2ccc(F)cc2)cc1	2.326	-22.44	7.975	-	-1.459	4.92
CC(C)(C)NC(=O)c1nn(C2CCS(=O)(=O)C2)c2c1CCCC2 (stereo not shown)	0	1.591	4.684	37.9	6.822	2.441
CC(CC(=O)Nc1ccc(C(=O)N(C)C)c(Cl)c1)n1cccc1 (stereo not shown)	2.674	-1.134	6.087	51.53	-2.837	14.74
Cc1nccn1Cc1nnc(C2CCCN(c3ncccc3F)C2)n1C (stereo not shown)	-3.636	-62.48	1.788	-53	6.321	0.2472